Laboratory results as given in the supplement of paper PMC10849652.
Some of the results follow.

Amino acid sequences for entries named in this document (tags omitted). A change or cut given only in a name is not applied to a line headed by its entry.
UniProt Q9UID6: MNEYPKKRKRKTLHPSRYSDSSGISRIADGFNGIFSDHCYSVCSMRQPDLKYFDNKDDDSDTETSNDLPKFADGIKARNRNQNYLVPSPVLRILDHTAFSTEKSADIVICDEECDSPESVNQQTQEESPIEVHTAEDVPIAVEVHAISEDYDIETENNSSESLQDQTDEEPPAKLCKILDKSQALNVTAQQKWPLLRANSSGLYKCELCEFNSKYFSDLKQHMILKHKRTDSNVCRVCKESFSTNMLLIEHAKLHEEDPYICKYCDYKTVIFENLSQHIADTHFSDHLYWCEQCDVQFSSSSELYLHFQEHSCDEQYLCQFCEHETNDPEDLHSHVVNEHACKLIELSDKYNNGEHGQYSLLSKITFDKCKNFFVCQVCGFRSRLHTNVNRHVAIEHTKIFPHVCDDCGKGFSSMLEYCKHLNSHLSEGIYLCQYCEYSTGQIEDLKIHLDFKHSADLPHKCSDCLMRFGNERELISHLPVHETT
UniProt Q19AV6: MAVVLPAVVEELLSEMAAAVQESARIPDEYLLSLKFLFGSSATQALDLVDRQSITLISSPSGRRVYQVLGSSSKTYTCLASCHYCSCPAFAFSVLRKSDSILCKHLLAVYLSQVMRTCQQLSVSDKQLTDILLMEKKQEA
UniProt Q5BKZ1: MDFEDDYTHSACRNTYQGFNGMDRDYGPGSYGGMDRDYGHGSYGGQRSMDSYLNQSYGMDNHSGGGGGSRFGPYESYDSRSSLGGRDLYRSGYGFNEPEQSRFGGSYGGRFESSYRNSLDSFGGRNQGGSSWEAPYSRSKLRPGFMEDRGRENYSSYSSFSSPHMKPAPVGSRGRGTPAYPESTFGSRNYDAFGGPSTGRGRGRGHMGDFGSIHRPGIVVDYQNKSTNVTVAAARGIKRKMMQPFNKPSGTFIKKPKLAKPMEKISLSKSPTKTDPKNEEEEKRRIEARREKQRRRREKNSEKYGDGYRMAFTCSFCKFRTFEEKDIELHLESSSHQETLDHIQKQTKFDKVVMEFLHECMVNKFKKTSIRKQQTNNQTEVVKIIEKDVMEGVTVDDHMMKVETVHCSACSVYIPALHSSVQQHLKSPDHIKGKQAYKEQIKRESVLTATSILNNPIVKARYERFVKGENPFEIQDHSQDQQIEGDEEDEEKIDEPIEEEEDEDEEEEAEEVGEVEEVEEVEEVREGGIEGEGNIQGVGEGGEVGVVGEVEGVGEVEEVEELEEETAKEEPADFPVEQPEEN
UniProt Q16587: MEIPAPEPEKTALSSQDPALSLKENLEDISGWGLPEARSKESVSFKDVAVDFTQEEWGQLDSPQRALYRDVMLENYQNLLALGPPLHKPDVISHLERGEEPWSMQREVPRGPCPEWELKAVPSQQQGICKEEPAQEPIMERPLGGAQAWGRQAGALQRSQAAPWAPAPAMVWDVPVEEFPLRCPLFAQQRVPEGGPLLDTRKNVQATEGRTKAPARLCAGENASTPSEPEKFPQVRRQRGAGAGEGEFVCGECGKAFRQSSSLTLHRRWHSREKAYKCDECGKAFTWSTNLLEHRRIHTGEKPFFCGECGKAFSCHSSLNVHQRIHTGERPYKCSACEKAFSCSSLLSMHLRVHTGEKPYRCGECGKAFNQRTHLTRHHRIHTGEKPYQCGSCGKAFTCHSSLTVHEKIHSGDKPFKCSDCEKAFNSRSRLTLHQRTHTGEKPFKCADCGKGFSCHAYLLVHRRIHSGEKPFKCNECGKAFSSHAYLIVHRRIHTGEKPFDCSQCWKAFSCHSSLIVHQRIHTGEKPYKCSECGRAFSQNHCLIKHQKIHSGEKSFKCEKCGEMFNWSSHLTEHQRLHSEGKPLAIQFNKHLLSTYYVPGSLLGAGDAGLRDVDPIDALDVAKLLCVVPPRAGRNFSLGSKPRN
UniProt Q6WRX3: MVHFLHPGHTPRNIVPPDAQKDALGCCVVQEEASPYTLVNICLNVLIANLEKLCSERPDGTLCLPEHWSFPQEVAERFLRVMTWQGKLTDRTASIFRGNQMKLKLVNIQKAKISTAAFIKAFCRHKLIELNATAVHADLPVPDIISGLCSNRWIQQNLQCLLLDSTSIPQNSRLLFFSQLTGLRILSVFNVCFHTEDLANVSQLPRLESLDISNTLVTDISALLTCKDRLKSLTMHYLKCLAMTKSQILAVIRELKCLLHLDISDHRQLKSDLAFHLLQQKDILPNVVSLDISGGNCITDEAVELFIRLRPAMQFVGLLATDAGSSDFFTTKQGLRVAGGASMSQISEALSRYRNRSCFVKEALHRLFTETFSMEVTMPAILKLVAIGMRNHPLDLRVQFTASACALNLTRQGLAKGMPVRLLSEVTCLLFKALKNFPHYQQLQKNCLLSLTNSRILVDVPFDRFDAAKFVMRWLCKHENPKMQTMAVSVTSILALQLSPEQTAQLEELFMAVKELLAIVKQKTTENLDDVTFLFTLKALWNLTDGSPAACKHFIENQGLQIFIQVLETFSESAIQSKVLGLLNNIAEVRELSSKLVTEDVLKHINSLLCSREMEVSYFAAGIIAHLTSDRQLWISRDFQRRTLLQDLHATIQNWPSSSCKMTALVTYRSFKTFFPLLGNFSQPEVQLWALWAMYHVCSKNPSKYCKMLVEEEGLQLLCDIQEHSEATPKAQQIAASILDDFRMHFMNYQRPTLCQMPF
UniProt Q92610: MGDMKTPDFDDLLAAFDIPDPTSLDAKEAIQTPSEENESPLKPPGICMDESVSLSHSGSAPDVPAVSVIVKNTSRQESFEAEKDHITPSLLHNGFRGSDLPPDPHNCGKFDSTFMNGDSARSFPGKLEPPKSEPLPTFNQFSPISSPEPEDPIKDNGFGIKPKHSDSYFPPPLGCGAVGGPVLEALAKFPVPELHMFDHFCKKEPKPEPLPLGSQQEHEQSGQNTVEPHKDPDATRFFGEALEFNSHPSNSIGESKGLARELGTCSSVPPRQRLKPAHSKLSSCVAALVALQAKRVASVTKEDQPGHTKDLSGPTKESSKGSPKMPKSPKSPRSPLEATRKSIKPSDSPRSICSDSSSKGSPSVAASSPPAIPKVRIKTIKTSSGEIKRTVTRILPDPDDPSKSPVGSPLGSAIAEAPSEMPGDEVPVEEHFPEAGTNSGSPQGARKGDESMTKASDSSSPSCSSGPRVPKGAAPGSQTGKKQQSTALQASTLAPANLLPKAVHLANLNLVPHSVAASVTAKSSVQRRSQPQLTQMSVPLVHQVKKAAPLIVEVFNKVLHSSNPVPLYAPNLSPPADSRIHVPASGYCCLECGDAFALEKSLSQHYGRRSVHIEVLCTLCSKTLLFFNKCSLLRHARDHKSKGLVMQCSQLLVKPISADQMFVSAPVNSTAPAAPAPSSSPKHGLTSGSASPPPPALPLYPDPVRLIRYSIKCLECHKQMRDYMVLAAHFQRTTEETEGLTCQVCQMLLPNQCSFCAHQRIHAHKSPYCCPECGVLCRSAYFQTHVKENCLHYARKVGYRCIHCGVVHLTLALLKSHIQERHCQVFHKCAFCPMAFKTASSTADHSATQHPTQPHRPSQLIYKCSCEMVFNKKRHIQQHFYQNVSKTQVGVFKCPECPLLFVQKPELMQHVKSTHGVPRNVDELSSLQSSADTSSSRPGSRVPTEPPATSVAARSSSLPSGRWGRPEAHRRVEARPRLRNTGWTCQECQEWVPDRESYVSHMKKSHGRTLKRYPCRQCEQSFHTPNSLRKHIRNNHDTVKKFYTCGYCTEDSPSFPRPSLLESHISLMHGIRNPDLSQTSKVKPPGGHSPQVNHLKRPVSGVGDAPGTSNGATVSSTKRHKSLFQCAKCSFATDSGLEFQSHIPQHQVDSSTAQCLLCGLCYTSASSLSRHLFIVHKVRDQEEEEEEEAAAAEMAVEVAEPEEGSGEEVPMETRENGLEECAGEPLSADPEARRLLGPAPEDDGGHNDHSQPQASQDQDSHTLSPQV
UniProt Q9UL40: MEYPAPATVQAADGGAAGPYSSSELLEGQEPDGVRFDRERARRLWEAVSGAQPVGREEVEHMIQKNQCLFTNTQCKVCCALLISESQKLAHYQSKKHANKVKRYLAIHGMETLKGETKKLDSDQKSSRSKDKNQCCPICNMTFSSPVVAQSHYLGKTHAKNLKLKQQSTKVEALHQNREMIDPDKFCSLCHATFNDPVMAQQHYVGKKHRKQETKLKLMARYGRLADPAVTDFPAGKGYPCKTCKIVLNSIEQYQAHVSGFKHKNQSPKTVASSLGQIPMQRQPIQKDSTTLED
ZNF654, A0A1B0GWA0, UniProt A0A1B0GWA0, whole entry, looked up: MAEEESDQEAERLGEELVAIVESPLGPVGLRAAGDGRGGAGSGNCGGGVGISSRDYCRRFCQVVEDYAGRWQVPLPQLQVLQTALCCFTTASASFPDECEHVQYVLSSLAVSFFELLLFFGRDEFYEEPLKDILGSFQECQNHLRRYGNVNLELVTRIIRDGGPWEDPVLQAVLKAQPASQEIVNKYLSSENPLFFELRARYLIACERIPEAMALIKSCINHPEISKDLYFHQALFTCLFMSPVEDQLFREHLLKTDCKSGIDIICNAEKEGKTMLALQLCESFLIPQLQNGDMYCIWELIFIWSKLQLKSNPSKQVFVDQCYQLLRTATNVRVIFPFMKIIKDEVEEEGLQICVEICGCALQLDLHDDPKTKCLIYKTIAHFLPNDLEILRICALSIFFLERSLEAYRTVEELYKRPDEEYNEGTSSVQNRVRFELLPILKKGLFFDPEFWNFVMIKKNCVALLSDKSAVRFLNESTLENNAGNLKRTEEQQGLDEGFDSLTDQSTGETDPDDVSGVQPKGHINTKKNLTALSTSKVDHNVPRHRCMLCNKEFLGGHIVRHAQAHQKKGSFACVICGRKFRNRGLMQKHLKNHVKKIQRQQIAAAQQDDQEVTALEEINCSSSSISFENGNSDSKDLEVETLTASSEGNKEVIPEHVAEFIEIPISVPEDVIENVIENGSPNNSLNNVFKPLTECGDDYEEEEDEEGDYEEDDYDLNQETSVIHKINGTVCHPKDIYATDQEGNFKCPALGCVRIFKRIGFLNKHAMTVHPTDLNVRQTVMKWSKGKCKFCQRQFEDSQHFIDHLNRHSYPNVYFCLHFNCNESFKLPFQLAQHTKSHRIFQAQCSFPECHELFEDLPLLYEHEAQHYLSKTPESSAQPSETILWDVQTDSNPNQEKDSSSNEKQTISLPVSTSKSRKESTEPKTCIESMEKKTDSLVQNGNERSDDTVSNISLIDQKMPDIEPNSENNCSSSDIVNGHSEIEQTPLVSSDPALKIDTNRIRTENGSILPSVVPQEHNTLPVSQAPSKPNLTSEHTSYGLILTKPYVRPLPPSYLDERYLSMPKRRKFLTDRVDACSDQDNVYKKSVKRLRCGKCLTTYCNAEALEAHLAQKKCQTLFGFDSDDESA
UniProt P59923: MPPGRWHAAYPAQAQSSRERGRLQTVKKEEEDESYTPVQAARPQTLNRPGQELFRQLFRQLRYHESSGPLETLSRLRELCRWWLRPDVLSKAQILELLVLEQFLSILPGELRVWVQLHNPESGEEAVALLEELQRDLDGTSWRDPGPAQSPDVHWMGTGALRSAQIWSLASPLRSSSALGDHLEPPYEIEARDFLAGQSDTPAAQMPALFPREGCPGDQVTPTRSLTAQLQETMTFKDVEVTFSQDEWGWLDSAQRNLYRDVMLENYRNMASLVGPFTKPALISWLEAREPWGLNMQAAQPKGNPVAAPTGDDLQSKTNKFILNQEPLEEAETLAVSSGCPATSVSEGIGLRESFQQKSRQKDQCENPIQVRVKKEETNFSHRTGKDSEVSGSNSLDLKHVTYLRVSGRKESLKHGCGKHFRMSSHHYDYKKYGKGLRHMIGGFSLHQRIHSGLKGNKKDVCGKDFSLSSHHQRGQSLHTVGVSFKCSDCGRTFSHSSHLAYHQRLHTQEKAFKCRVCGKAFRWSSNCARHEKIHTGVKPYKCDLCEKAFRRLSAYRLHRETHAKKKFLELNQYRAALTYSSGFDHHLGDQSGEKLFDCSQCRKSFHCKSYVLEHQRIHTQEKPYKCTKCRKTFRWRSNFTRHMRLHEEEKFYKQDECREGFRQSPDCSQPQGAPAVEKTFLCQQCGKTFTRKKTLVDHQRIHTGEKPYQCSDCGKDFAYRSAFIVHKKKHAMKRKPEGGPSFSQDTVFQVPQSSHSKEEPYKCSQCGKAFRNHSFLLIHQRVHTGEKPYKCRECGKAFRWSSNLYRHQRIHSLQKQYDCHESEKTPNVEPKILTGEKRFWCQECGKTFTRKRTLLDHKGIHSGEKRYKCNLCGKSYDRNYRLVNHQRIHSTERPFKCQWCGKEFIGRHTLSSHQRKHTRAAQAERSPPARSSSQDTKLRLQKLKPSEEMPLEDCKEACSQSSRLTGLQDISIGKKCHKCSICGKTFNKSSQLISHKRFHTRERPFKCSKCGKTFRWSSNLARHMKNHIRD
UniProt O43257, whole entry, looked up: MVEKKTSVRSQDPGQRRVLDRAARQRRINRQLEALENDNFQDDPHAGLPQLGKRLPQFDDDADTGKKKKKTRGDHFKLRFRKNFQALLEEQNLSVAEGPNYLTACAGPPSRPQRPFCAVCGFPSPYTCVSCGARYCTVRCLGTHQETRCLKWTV

Each target was assayed with CN1CC[C@H](c2c(O)cc(O)c3c(=O)cc(-c4ccccc4Cl)oc23)[C@H](O)C1 [alvocidib] (assay: log2 fold change, soluble protein after heating vs DMSO (PISA); higher = thermal stabilisation; K562 lysate, 10 uM; active = over 0.2 and 3.5 SD of the protein, either way, in both replicates (recomputed)).
Summary of the method: (§1)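 Dounce homogenisation of K562 pellets in PBS pH 7.4 with 1 mM MgCl2 produced a crude extract, used at 1 mg/mL protein. Exposure to 10 μM compound lasted 30 min, and aliquots were then heated for 3 min across 48°C-58°C, pooled and brought to 0.5% NP-40 at 4°C. The supernatant after 21,000xg for 90 min was quantified by TMTpro 16plex LC-MS/MS with channel sums equalised. Duplicate values are given as log-two fold change in thermal stability relative to solvent controls.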

| Target | log2 fold change |
| --- | --- |
| ZNF639 (UniProt Q9UID6) | inactive: 0.005 |
| ZNF280B (UniProt Q86YH2) | inactive: -0.065 |
| ZNF48 (UniProt Q96MX3) | inactive: 0.053 |
| ZSWIM7 (UniProt Q19AV6) | inactive: -0.128 |
| ZNF595 (UniProt Q8IYB9) | inactive: 0.247 |
| ZNF326 (UniProt Q5BKZ1) | inactive: -0.013 |
| ZNF74 isoform 5 (UniProt Q16587) | inactive: -0.015 |
| ZNF771 (UniProt Q7L3S4) | inactive: -0.03 |
| ZYG11A (UniProt Q6WRX3) | inactive: -0.18 |
| ZNF655 isoform 2 (UniProt Q8N720) | inactive: 0.02 |
| ZNF669 (UniProt Q96BR6) | inactive: 0.117 |
| ZNF444 (UniProt Q8N0Y2) | inactive: 0.021 |
| ZNF8 (UniProt P17098) | inactive: -0.104 |
| ZNF592 (UniProt Q92610) | inactive: -0.21 |
| ZNF346 (UniProt Q9UL40) | inactive: 0.05 |
| ZNF324 (UniProt O75467) | inactive: -0.053 |
| ZNF280D (UniProt Q6N043) | inactive: 0.013 |
| ZNF574 isoform 2 (UniProt Q6ZN55) | inactive: -0.024 |
| ZNF654, A0A1B0GWA0 | inactive: 0.018 |

The targets below were run with CN1CCc2c(c3ccccc3n2Cc2ccc(C(=O)NO)cc2)C1 [Tubastatin A] in the same assay as above.
Summary of the method: as §1

| Target | log2 fold change |
| --- | --- |
| ZNF639 (UniProt Q9UID6) | inactive: 0.081 |
| ZNF101 (UniProt Q8IZC7) | inactive: -0.045 |
| ZSWIM7 (UniProt Q19AV6) | inactive: 0.163 |
| ZNF595 (UniProt Q8IYB9) | inactive: -0.274 |
| ZNF445 (UniProt P59923) | inactive: 0.055 |
| ZNF326 (UniProt Q5BKZ1) | inactive: -0.082 |
| ZNF74 isoform 5 (UniProt Q16587) | inactive: -0.328 |
| ZNF687 (UniProt Q8N1G0) | inactive: -0.171 |
| ZNF512B (UniProt Q96KM6) | inactive: -0.049 |
| ZNHIT1 (UniProt O43257) | inactive: 0.182 |
| ZYG11A (UniProt Q6WRX3) | inactive: 0.018 |
| ZNF669 (UniProt Q96BR6) | inactive: 0.009 |
| ZNF444 (UniProt Q8N0Y2) | inactive: 0.056 |
| ZNF8 (UniProt P17098) | inactive: -0.086 |
| ZNF592 (UniProt Q92610) | inactive: -0.156 |
| ZNF346 (UniProt Q9UL40) | inactive: 0.036 |
| ZNF324 (UniProt O75467) | inactive: 0.045 |
| ZNF384 (UniProt Q8TF68) | inactive: 0.001 |
| ZNF280D (UniProt Q6N043) | inactive: -0.146 |
| ZNF574 isoform 2 (UniProt Q6ZN55) | inactive: 0.034 |
| ZNF654, A0A1B0GWA0 | inactive: 0.034 |

What follows are targets tested with CNC(=O)C1=CC=CC=C1NC2=NC(=NC=C2Cl)NC3=C(C=C(C=C3)N4CCOCC4)OC in the same assay as above.
Summary of the method: as §1

| Target | log2 fold change |
| --- | --- |
| ZNF800 (UniProt Q2TB10) | inactive: 0.077 |
| ZNF76 (UniProt P36508) | inactive: 0.082 |
| ZNF639 (UniProt Q9UID6) | inactive: 0.007 |
| ZNF280B (UniProt Q86YH2) | inactive: -0.023 |
| ZNF101 (UniProt Q8IZC7) | inactive: -0.03 |
| ZSWIM7 (UniProt Q19AV6) | inactive: 0.08 |
| ZNF445 (UniProt P59923) | inactive: 0.334 |
| ZNF326 (UniProt Q5BKZ1) | inactive: 0.009 |
| ZNF74 isoform 5 (UniProt Q16587) | inactive: -0.087 |
| ZNF687 (UniProt Q8N1G0) | inactive: 0.016 |
| ZNF771 (UniProt Q7L3S4) | inactive: 0.075 |
| ZNHIT1 (UniProt O43257) | inactive: 0.087 |
| ZYG11A (UniProt Q6WRX3) | inactive: -0.013 |
| ZNF668 isoform 2 (UniProt Q96K58) | inactive: 0.081 |
| ZNF669 (UniProt Q96BR6) | inactive: -0.024 |
| ZNF525 (UniProt J3KR51) | inactive: -0.022 |
| ZNF358 (UniProt Q9NW07) | inactive: -0.127 |
| ZMYM5 (UniProt Q9UJ78) | inactive: -0.033 |
| ZNF8 (UniProt P17098) | inactive: 0.148 |
| ZNF592 (UniProt Q92610) | inactive: -0.051 |
| ZNF346 (UniProt Q9UL40) | inactive: -0.009 |
| ZNF384 (UniProt Q8TF68) | inactive: 0.063 |
| ZNF574 isoform 2 (UniProt Q6ZN55) | inactive: -0.026 |
| ZNF654, A0A1B0GWA0 | inactive: 0.054 |

The targets below were run with CNC(=O)c1ccc(Nc2ncc(C(F)(F)F)c(NCc3nccnc3N(C)S(C)(=O)=O)n2)cc1 [defactinib] in the same assay as above.
Summary of the method: as §1

| Target | log2 fold change |
| --- | --- |
| ZNF76 (UniProt P36508) | inactive: 0.037 |
| ZNF460 (UniProt Q14592) | inactive: -0.129 |
| ZNF639 (UniProt Q9UID6) | inactive: -0.017 |
| ZNF280B (UniProt Q86YH2) | inactive: -0.066 |
| ZSWIM7 (UniProt Q19AV6) | inactive: -0.024 |
| ZNF595 (UniProt Q8IYB9) | inactive: 0.005 |
| ZNF445 (UniProt P59923) | inactive: 0.091 |
| ZNF326 (UniProt Q5BKZ1) | inactive: -0.023 |
| ZNF655 isoform 2 (UniProt Q8N720) | inactive: 0.061 |
| ZNF77 (UniProt Q15935) | inactive: -0.034 |
| ZNF525 (UniProt J3KR51) | inactive: -0.13 |
| ZNF708 (UniProt P17019) | inactive: 0.288 |
| ZNF692 isoform 5 (UniProt Q9BU19) | inactive: -0.028 |
| ZMYM5 (UniProt Q9UJ78) | inactive: -0.059 |
| ZNF8 (UniProt P17098) | inactive: 0.067 |
